Earlier results in patent US20210085743A1, “SARRACENIA-BASED TOPICAL COMPOSITIONS AND METHODS OF USE THEREOF” (Aubio Life Sciences, LLC, priority 2019, published 2021).
At least one compound was matched to its structure with a doubt left.

Test system: mycobacteria
Settings: from methanolic extracts of Sarracenia purpurea; cited from earlier work

C=C(C)[C@@H]1CC[C@]2(C(=O)O)CC[C@]3(C)[C@H](CC[C@@H]4[C@@]5(C)CC[C@H](O)C(C)(C)[C@@H]5CC[C@]43C)[C@@H]12 [betulinic acid]
antimycobacterial activity: responsible for the antimycobacterial activity
